Experiment [1] deals with T1, Alpha fetoprotein (AFP), endogenous (human (endogenous in HuH7)) (UniProt P02771).
T1 sequence: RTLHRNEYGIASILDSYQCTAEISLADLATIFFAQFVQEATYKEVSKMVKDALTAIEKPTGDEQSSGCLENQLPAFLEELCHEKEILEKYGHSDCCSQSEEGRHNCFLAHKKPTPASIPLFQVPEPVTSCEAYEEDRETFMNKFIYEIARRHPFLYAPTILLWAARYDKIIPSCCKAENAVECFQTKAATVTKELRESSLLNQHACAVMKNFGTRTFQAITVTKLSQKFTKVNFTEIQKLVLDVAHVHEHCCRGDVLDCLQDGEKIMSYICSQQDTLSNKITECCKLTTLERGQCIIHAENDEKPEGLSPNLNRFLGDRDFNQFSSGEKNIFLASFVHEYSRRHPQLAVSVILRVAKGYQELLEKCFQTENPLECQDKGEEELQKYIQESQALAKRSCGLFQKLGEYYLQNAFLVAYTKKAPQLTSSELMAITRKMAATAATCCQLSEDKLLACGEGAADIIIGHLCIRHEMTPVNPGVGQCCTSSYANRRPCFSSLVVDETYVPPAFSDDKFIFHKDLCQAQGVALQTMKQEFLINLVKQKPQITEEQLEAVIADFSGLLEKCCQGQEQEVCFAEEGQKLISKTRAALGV
Briefly: co-IP; lysate of HuH7 cells, endogenous proteins; anti-AFP or anti-HuR antibody (reciprocal), protein G-sepharose; buffer 50 mM Tris/HCl pH 7.5, 150 mM NaCl, 1% Triton X-100, 1 mM EDTA, 10% glycerol; Western blot; IgG as negative control.

Sequences of proteins named here, by UniProt entry; tags and fusion partners are left off.
UniProt Q15717: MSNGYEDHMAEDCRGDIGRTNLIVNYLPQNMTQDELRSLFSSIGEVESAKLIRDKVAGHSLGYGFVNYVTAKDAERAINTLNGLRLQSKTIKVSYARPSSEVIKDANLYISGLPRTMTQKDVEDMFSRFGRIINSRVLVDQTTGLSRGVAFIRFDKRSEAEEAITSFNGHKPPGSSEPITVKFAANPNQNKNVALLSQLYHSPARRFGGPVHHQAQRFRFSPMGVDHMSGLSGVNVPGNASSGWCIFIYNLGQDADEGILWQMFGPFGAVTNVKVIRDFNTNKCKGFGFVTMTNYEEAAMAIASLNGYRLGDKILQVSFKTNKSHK

Experiment [2] deals with T2, Alpha fetoprotein (AFP), ectopically expressed (UniProt P02771).
T2 sequence: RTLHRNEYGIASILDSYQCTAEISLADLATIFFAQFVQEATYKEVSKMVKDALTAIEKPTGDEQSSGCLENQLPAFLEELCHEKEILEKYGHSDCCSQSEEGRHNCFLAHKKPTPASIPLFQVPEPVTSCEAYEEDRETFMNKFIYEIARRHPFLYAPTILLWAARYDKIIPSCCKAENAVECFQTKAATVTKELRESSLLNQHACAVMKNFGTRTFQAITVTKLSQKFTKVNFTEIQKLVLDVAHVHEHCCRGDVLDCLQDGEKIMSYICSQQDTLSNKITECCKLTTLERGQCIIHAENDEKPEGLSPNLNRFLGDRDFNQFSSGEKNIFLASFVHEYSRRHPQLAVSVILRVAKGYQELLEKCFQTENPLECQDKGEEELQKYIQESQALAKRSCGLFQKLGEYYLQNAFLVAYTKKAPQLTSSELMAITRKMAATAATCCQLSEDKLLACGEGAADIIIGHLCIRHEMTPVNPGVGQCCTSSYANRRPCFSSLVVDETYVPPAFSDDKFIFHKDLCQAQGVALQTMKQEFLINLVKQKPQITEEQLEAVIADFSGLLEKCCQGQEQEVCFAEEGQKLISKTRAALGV
Briefly: co-IP; lysate of HLE cells stably transfected with the AFP expression plasmid; AFP precipitated, protein G-sepharose; buffer 50 mM Tris/HCl pH 7.5, 150 mM NaCl, 1% Triton X-100, 1 mM EDTA, 10% glycerol; Western blot; IgG as negative control. (In general: Immunoblotting shows a protein as a band on a membrane.)

Experiment [3] concerns the target Human antigen R (HuR), endogenous (human (endogenous in HLE and HuH7)) (UniProt Q15717). Briefly: co-IP; lysate of HuH7 cells, endogenous proteins; anti-AFP or anti-HuR antibody (reciprocal), protein G-sepharose; buffer 50 mM Tris/HCl pH 7.5, 150 mM NaCl, 1% Triton X-100, 1 mM EDTA, 10% glycerol; Western blot; IgG as negative control.

No constants are given. Whether binding was seen depends on the method and setting. Binding seen in cells or lysates may run through a third protein. Some binding calls cover weakened binding; strength is not graded here.

For “Human antigen R (HuR), endogenous (from UniProt Q15717 1-326)”, the binding result in experiment [1] and in experiment [2] was “binds” throughout.

B1: Alpha fetoprotein (AFP), endogenous (protein, UniProt P02771 19-609)
chain: RTLHRNEYGIASILDSYQCTAEISLADLATIFFAQFVQEATYKEVSKMVKDALTAIEKPTGDEQSSGCLENQLPAFLEELCHEKEILEKYGHSDCCSQSEEGRHNCFLAHKKPTPASIPLFQVPEPVTSCEAYEEDRETFMNKFIYEIARRHPFLYAPTILLWAARYDKIIPSCCKAENAVECFQTKAATVTKELRESSLLNQHACAVMKNFGTRTFQAITVTKLSQKFTKVNFTEIQKLVLDVAHVHEHCCRGDVLDCLQDGEKIMSYICSQQDTLSNKITECCKLTTLERGQCIIHAENDEKPEGLSPNLNRFLGDRDFNQFSSGEKNIFLASFVHEYSRRHPQLAVSVILRVAKGYQELLEKCFQTENPLECQDKGEEELQKYIQESQALAKRSCGLFQKLGEYYLQNAFLVAYTKKAPQLTSSELMAITRKMAATAATCCQLSEDKLLACGEGAADIIIGHLCIRHEMTPVNPGVGQCCTSSYANRRPCFSSLVVDETYVPPAFSDDKFIFHKDLCQAQGVALQTMKQEFLINLVKQKPQITEEQLEAVIADFSGLLEKCCQGQEQEVCFAEEGQKLISKTRAALGV
Turning to B1, in experiment [3], the binding result was “binds”.

The record behind these values is PMC7532541.
